Measured values: US20250163137A1

Key:
DR-70 (human) [1] = assay: summary of the working examples
DR-70 (human) [2] = assay: sandwich ELISA on serum

binding (DR-70 (human) [1]): binds
binding (DR-70 (human) [2]): binds
B1: mAb 14G12-5 (antibody, V domains shown)
VH: EVQLVESGGGLVKPGGSLKLSCAASGFAFNAYDMSWVRQTPEKRLEWVAYISSSGDYTYYPDTVKGRFTVSRDNAKSTLYLHMGSLKSEDTAMYYCAVYYHYDEGLDYWGQGTALTVSS
VL: QIVLIQSPAIMSASPGEKVTMTCSASSSVNYMHWYQQKSGTSPKRWIYDTSKLASGVPARFSGSGSGTSYSLTISSMEAEDAATYYCQQWSSNPPTFGGGTKLEIKR

Results are given in words; binding and its absence hold for the method and conditions named. Binding can be weak; no strength is given.
